Experimental data as given in US8119660B2, “Small-molecule inhibitors of the androgen receptor” (The Regents of the University of California, priority 2007, dated 2012).
At least one structure is not confirmed: it was looked up by name or label, or the drawing left a doubt.

Test system: LNCaP cells
Assay: Cell proliferation (DNA content, DAPI), LNCaP
Format: cell-based, human
Conditions: 3 nM DHT, seven days, PP 100 nM, HH 100 nM, BiC 1 μM
Description: LN-AR cells were created by retroviral infection of a high-expressing AR vector into LNCaP cells, and proliferate independent of androgen in cell culture, unlike their parental line (Chen, C. D., et al., Molecular determinants of resistance to antiandrogen therapy. Nat Med, 2004. 10(1): p. 33-9). HEK293 cells were used as a control. Cells were transferred to charcoal-stripped media two days before they were split and plated in quadruplicate at a density of approximately 20,000 cells/well in 48-well plates. […] Media were changed every day, using a single preparation to ensure consistent compound concentrations. Proliferation was determined by measuring the DNA content of the cells in each well. Each day, the cells in four wells were fixed in 100% cold methanol, followed by staining for 5 min at RT with 0.2 ng/mL 4′,6-diamidino-2-phenylindole (DAPI) in PBS. The cells were washed once in PBS, then read on a fluorescence plate reader using 365/439 excitation/emission wavelengths. LAPC4 and LNCaP cells proliferated to a much greater degree in the presence of DHT, while LN-AR cells proliferated in the presence and absence of DHT.

With `CC(O)(CS(=O)(=O)c1ccc(F)cc1)C(=O)Nc1ccc(C#N)c(C(F)(F)F)c1` (stereo not shown) [BiC, bicalutamide] the “Inhibition of cell growth” value was “inhibited significantly”.
